Reference: PMC10163288
This is one part of the list.

B1: il2ra_site1_3nfp_sap_16_mot_06fb79ff5b0635ea054e4773f75fe636_0001_af2_000000209_0001_53_63_H_._HEEHE_0001_0001_0000200015_0000001_0_0001_af2pred_0001_af2pred_1 (protein)
chain: TAEELVAEAIHHAVKRNSPFLLRRVLEDFERFAGDPEEAKRLFEEFLEEAGLSPEEIERAKELVE
B2: il2ra_site1_1z92_normal_mot_HHH_b2_05373_af2_000000032_0001_24_40_H_._66959ead3e6c57cb3ef8243f3eb758e0_0001_1_af2_0001_0000100003_0000001_0_af2pred_0001_af2pred … (protein)
chain: SLIEEDLREAVEKNDEELLKEFIELLLKDTGDPKLVEALLRVLVRRLGLPPEVLEELRRLLEELT
B3: il2ra_site1_1z92_sap_15_mot_HHH_b1_00368_000000203_0001_23_39_H_._HHH_b2_07985_0001_0000100002_0000001_0_0001 (protein)
chain: SSSTREMLKRLSRIISKLIHKYGLSDEQALELLKLADELALRGVSEEEIEQLLEELAKELKSSSS
B4: il2ra_site1_2b5i_normal_mot_HHH_b2_04910_000000118_0001_1_19_H_._HHH_b1_02607_0001_0000300018_0000001_0_af2pred_0001_af2pred_1 (protein)
chain: SSSSDFRELRELLREANELFKNGDPEEARRVLEEAIELAREAGNRSMLRFLETALRLIEASSSSS
B5: il2ra_site2_3nfp_sap_15_mot_HHH_b2_00102_000000046_0001_18_35_H_._HHH_b1_04540_af2_0001_0000400024_0000001_0_0001_af2pred_0001_af2pred (protein)
chain: SSSSSEEEEEVEKLLKEAEELLKRGDPEEAEEVVHRALLIARELNNEELLELIKELFEKILSSSS
B6: il2ra_site1_1z92_sap_21_mot_HHH_b1_04602_000000153_0001_1_19_H_._6bb093d23f5042b6c551c363657da53b_0001_1_0001_0000300026_0000001_0_0001 (protein)
chain: NRRELQHMIEELREEGVPPEEIVKILLELVERDAGDPRLALQFLKRLLRKLGDPELLKVLEELIK
B7: il2ra_site2_3nfp_sap_20_mot_HHH_b1_01243_000000091_0001_42_57_H_._HHH_b2_00198_af2_0001_0000400017_0000001_0_0001 (protein)
chain: SSSSSEHEEYLRAALALLEWALEEGDEELFRKLARLIEMAAEDAKDEEVLEEVRRLLEEFDSSSS
B8: il2ra_site2_2erj_normal_mot_HHH_b1_08702_000000201_0001_39_56_H_._HHH_b2_04470_0001_0000400002_0000001_0 (protein)
chain: SSSSSEEEEVEELFKKAKELLENGNPEEASAVLARAAFIAIENNNDELLRELWELAREIFSSSSS
B9: il2ra_site2_2erj_normal_mot_HHH_b1_03833_000000078_0001_1_20_H_._HHH_b2_00047_0001_0000100001_0000001_0 (protein)
chain: SSSSDEIEELLRELREAFEKNDPRFHKLAWELLRLASELGSDEAAEIAQEAFRLFEELLKGSSSS
B10: il2ra_site2_2erj_normal_mot_HHH_b1_07806_000000211_0001_42_56_H_._HHH_b2_03376_0001_0000100006_0000001_0 (protein)
chain: SSSSSDELERLYELLEEVDELLQKGNEEEAEEVAEELEKLARELQSPNVEELLKLSLELNSSSSS
B11: il2ra_site2_2erj_normal_mot_HHH_b2_05773_000000169_0001_20_36_H_._HHH_b1_04433_af2_0001_0000200004_0000001_0 (protein)
chain: SSSSDEEAEKLREEAREAAEEGDPEEAFRLLSRAFEIAYELNDHRLAAEIIELAARIAKLESSSS
B12: il2ra_site1_3nfp_sap_19_mot_b9b1aa0f98829a21a591038753170461_0001_1_af2_000000119_0001_3_14_H_._611abf4560985a38fcb56c97b2cc3b8d_0001_0001_0000300020_0000001_0_ … (protein)
chain: DEEVEKLFEELKKRIPPEEVVRILLEELEEKLGNPHRASEIVMKVLLRLGFDIEEIARLLKRARE
B13: il2ra_site1_1z92_sap_23_mot_HHH_b2_02540_000000162_0001_1_16_H_._12a7ffe86416d83887ddd0891a48ef14_0001_0001_0000600022_0000001_0_0001_af2pred_0001_af2pred (protein)
chain: SSSSDLERSLRIAVEAAVEQAGLSEEQREELEKLVEELVERGVDFKEASKILDRVALELESSSSS
B14: il2ra_site1_3nfp_normal_mot_HHH_b1_08723_000000044_0001_1_15_H_._HHH_b1_08624_af2_0001_0000200015_0000001_0 (protein)
chain: SSSSSEQEQVEKLFRELFELAQRDDKEEVERVAEELERLLEELNNESHLRSVRNALKLLDSSSSS
B15: il2ra_site1_1z92_sap_13_mot_47733d3662eb36425869ff66b6028fdd_0001_af2_000000189_0001_37_50_H_._HHH_b2_05878_0001_0000300046_0000001_0_0001 (protein)
chain: TRKWLQERIEELREEGVPPEEIVKILLEQVEKDSGDPKLALQFLATLLRKLGDPELLKVLEELIK
B16: il2ra_site2_3nfp_normal_mot_HHH_b1_00660_af2_000000090_0001_40_57_H_._HHH_b2_02148_0001_0000400016_0000001_0_af2pred_0001_1_af2pred_swapped (protein)
chain: SSSSSDEEVREEVEELLEEAKHIPDPEERERLVLEASHLAAEAGDEELIMLVLQVLERVTSSSSS
B17: il2ra_site1_3nfp_normal_mot_HHH_b2_02053_000000240_0001_1_20_H_._HEEHE_0287_af2_0001_0000100003_0000001_0 (protein)
chain: HRDEAVRWLIEQKAEHLGVPHVEVEEHNGKLSVTVKGNDESAEELAEFAERAAEAARVPLEVRFK
B18: il2ra_site1_3nfp_normal_mot_HHH_b1_08357_af2_000000270_0001_1_19_H_._0c70b1737afd558c88fc2c362a6b1452_0001_1_af2_0001_0001100020_0000001_0 (protein)
chain: SLEQFEEDIRRNGDPEAEEALKEAVELLRELGVPPAEAAWIFIRLVVELGDPQEALRVVEEEVRK
B19: il2ra_site1_2b5i_sap_13_mot_0e5a94e4a5addaac739760efb25f0f5d_0001_000000246_0001_18_32_H_._401b3fc81aeba90f4e6d1021399306aa_0001_1_af2_0001_0000200010_0000001_0 … (protein)
chain: SSSSDEELHQVDELYREASELFRNGNPEEARKVLEEALELAKEAGDPVAVEDIRRLLEMLKSSSS
B20: il2ra_site2_3nfp_normal_mot_HHH_b1_01964_000000000_0001_19_36_H_._HHH_b1_06573_0001_0000100005_0000001_0_af2pred_0001_af2pred (protein)
chain: SSSSEEELQELLRRAKELLEEGNPEEALRLLAEALEIALELGDRELAFEIMALASEVAELLSSSS
B21: il2ra_site1_1z92_sap_19_mot_HHH_b1_01957_af2_000000000_0001_1_17_H_._HHH_b1_03966_0001_0000500021_0000001_0_0001_af2pred_0001_af2pred_1 (protein)
chain: SSSSSEKDRKLVRVLAKLLSKFQLSQEQLKILHEVALELAERGVSEEEIEEILEEVAKELSSSSS
B22: il2ra_site1_1z92_normal_mot_35b94aac26684153dbcc4bf06a514b74_0001_1_000000068_0001_35_49_H_._HHH_b2_03659_0001_0000200018_0000001_0_af2pred_0001_af2pred_1 (protein)
chain: SSSSDELERVVEELVEELGLDEDAKKRLEEAVEELKELGLSEEQAEKFLELLARHAAEHLSSSSS
B23: il2ra_site2_3nfp_normal_mot_49a7c9051cacde34b31d84fabeb7f3ea_0001_af2_000000030_0001_39_52_H_._HHH_b2_06514_af2_0001_0000600021_0000001_0 (protein)
chain: SSSSDEEEEELERLQELLKRLEEEGDRFELLRVLLRAVQLANRLGDEEAARRELKLYEKLASSSS
B24: il2ra_site1_2b5i_normal_mot_0e5a94e4a5addaac739760efb25f0f5d_0001_000000289_0001_18_32_H_._fe6bf14837f0eca3ce69ff8b196801f6_0001_0001_0000400021_0000001_0 (protein)
chain: SIEELAREAAELVEDPEVSKALVRVAWRERVGVLSPEAEELFEELVELIKKGDPRIEEIAKEILN

These binders were tested against il2ra, P01589 (assay: yeast display titration).

Apparent Kd, inactive:
B1 no binding seen
B2 no binding seen
B3 no binding seen
B4 no binding seen
B5 no binding seen
B6 no binding seen
B7 no binding seen
B8 no binding seen
B9 no binding seen
B10 no binding seen
B11 no binding seen
B12 no binding seen
B13 no binding seen
B14 no binding seen
B15 no binding seen
B16 no binding seen
B17 no binding seen
B18 no binding seen
B19 no binding seen
B20 no binding seen
B21 no binding seen
B22 no binding seen
B23 no binding seen
B24 no binding seen

Reprinted at random: two records from the list
Apparent Kd, inactive:
B16 no binding seen
B14 no binding seen
